Experimental data taken from doi:10.1101/2020.11.10.376178.

Protein sequences, listed by entry. Tags and fused reporters are not part of them. Lines headed by an entry give the natural chain unless they say otherwise; changes in a name come on top. Residues count along the entry.
UniProt P06213, residues 28-1382: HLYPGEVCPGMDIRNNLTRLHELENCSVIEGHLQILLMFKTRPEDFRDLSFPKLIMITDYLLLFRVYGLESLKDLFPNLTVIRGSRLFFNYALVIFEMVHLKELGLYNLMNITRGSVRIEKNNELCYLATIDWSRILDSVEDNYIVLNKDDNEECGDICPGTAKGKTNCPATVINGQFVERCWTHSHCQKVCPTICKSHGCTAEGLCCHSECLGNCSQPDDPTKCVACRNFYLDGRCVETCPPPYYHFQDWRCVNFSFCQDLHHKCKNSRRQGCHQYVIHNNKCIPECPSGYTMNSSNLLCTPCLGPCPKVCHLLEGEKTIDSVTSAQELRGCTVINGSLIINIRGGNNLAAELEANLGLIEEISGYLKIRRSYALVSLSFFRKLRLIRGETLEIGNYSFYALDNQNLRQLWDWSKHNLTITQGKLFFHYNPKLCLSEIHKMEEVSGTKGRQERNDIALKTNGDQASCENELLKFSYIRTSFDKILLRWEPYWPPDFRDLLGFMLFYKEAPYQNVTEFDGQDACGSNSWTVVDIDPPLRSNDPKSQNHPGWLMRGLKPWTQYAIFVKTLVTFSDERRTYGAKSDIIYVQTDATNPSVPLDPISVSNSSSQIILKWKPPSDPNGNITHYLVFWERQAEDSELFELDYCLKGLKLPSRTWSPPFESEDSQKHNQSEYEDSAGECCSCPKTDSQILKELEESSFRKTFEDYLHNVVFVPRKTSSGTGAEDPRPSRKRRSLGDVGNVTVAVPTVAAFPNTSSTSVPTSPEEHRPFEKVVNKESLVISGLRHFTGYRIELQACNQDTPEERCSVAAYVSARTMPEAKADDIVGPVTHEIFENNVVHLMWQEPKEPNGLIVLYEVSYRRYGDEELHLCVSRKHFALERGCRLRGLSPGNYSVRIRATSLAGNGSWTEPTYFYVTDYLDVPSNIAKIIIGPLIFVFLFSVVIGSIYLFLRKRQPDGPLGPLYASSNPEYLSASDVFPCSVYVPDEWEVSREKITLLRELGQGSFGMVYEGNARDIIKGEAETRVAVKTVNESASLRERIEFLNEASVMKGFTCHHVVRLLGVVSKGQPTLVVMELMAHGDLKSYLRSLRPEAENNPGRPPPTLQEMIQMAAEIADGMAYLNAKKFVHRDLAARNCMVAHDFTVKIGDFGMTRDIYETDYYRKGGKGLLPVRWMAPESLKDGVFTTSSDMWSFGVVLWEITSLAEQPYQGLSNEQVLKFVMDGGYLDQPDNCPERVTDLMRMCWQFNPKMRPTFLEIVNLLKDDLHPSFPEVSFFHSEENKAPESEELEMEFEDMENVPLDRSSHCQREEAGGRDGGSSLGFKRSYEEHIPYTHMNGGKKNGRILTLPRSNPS
UniProt Q8WY21: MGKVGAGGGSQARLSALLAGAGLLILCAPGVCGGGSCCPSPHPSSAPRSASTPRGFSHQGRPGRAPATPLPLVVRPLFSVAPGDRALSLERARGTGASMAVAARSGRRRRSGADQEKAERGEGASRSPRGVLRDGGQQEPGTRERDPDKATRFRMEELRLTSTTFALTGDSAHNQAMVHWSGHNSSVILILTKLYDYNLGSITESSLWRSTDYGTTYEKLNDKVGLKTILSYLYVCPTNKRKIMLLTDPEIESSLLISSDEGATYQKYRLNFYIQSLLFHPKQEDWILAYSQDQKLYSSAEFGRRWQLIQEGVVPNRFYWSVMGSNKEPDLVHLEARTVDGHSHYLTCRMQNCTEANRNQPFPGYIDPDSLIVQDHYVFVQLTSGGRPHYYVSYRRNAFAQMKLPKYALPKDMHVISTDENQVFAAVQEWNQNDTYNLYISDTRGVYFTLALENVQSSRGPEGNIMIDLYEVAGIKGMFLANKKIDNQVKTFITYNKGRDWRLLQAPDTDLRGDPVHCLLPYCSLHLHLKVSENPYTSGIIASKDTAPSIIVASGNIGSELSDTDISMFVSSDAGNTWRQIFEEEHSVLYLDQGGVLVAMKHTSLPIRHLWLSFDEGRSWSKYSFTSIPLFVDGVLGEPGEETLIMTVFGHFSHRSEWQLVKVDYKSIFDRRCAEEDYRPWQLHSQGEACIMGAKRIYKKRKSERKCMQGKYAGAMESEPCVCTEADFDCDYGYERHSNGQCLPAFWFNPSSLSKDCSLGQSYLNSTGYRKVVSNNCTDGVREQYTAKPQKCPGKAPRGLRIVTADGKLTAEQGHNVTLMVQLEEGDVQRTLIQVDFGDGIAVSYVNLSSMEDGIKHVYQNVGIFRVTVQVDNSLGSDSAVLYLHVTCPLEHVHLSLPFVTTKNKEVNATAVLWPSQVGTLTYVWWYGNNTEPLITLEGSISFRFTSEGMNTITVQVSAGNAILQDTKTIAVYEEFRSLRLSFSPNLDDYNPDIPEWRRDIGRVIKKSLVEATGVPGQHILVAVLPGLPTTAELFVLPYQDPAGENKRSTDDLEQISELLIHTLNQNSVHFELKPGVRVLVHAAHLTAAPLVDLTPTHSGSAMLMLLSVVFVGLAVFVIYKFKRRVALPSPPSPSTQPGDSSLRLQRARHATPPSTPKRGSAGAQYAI

What was measured:
insulin receptor = insulin receptor (UniProt P06213); assay: co-IP
SorCS1 = SorCS1 (UniProt Q8WY21); assay: co-IP

Substance | binding (insulin receptor) | binding (SorCS1)
SorCS1 (from UniProt Q8WY21) (receptor) | binds | 
insulin receptor (from UniProt P06213 28-1382) |  | binds

No constants are given. Whether binding was seen depends on the method and setting. In cells and extracts the contact can be indirect. Binding can be weak; no strength is given.
